{"source": "paper PMC12216202", "binders": {"B1": {"name": "USP39 (enzyme, UniProt Q3TIX9 1-564)", "chain": "MSSRSKRQSHGSTRGKRESESRGSSGRIKKERDREKEPEAASSRGSPVRVKREAEPAAREVPAPALPVVRVKREREADEDSEPEREVRAKNGRVDSEDRRSRHCPYLDTINRSVLDFDFEKLCSISLSHINAYACLVCGKYFQGRGLKSHAYIHSVQFSHHVFLNLHTLKFYCLPDNYEIIDSSLEDITYVLKPTFTKQQIANLDKQAKLSRAYDGTTYLPGIVGLNNIKANDYANAVLQALSNVPPLRNYFLEEDNYKNIKRPPGDIMFLLVQRFGELMRKLWNPRNFKAHVSPHEMLQAVVLCSKKTFQITKQGDGVDFLSWFLNALHSALGGTKKKKKTIVNDVFQGSMRIFTKKLPHPDLPAEEKEQLLHNDEYQETMVESTFMYLTLDLPTAPLYKDEKEQLIIPQVPLFNILAKFNGITEKEYKTYKENFLKRFQLTKLPPYLIFCIKRFTKNNFFVEKNPTIVNFPITNVDLREYLSEEVQAVHKNTTYDLIANIVHDGKPSEGSYRIHVLHHGTGKWYELQDLQVTDILPQMITLSEAYIQIWKRRDNDETNQQGA"}}, "molecular_target": "T1, N-acetyltransferase 10 (mouse (endogenous in BMDMs)) (UniProt Q8K224)", "T1 sequence": "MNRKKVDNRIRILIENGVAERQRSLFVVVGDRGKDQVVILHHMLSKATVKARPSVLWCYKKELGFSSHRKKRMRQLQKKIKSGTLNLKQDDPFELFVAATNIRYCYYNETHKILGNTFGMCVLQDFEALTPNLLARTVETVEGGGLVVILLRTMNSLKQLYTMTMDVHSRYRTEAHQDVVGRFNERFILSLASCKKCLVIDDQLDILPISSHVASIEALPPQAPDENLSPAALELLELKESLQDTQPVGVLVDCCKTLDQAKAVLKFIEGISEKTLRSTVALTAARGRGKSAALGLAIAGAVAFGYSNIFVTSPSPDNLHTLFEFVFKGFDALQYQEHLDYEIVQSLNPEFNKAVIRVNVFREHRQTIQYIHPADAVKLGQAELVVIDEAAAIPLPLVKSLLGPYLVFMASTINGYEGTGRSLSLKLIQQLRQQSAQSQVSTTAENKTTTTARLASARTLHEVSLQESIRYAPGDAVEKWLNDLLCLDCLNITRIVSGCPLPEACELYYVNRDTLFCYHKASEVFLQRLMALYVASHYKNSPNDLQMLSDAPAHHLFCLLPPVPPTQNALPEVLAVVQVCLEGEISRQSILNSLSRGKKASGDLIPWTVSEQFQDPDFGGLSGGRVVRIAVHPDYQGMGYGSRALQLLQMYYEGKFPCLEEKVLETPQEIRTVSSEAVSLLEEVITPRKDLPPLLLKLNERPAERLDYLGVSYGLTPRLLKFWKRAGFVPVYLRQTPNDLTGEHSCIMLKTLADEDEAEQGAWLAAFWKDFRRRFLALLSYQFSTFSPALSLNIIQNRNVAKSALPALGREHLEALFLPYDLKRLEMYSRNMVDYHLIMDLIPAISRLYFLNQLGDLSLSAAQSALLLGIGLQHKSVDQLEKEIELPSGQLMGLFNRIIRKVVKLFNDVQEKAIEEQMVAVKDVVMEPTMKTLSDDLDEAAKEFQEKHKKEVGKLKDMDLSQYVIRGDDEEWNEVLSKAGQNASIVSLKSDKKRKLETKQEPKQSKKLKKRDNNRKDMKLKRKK", "test": "affinity purification with mass spectrometry; immunoprecipitation of endogenous NAT10 from LPS-treated BMDMs, mass spectrometry of the NAT10 interactome; three IP-MS groups", "note": "No constants are given. Whether binding was seen depends on the method and setting. In cells and extracts the contact can be indirect. A yes stands for co-enrichment or nearness to the bait. Other partners may have been found.", "data": [{"binder": "B1", "values": [{"measurement": "binding", "value": "binds"}]}]}
